Results are given in words; binding and its absence hold for the method and conditions named. In cells and extracts the contact can be indirect. Some binding calls cover weakened binding; strength is not graded here.
Biological target: T1, Sin3a (UniProt Q60520)
T1 sequence: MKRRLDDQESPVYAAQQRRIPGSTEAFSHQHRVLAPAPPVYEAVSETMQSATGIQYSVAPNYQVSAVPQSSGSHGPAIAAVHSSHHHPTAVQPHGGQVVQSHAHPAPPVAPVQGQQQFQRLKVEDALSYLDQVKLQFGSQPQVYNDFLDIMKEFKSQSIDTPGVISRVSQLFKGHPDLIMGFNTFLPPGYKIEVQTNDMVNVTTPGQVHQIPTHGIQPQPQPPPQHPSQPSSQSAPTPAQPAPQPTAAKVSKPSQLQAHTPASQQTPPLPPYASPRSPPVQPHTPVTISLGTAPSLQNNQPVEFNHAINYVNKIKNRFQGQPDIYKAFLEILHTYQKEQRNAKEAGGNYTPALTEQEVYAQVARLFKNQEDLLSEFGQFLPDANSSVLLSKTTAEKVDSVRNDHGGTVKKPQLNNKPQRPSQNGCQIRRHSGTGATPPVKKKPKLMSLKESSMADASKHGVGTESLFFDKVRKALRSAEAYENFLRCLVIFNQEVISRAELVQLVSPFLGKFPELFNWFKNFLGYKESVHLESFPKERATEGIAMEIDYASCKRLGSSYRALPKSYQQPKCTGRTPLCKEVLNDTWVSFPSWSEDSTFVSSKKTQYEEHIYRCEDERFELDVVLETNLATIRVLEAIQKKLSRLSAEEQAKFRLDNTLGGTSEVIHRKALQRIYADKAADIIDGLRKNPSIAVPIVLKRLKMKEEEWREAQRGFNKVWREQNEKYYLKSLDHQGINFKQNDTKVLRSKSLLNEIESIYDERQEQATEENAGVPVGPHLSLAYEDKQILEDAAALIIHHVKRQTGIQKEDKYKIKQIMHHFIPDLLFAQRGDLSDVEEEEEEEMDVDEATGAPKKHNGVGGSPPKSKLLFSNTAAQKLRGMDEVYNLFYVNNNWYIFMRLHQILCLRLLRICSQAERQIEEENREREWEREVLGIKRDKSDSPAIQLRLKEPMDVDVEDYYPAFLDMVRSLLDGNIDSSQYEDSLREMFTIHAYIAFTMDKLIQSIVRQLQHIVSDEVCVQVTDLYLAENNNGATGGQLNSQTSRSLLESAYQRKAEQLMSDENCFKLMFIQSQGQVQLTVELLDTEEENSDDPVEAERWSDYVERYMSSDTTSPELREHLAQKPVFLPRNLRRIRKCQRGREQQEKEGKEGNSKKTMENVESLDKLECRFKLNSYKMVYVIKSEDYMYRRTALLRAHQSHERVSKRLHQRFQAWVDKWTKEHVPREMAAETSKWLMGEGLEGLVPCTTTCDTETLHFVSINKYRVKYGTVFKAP
Test: co-IP; 293T cells cotransfected with Sin3a and Foxp3 plasmids, lysed after 48 h in 20 mM Tris-Cl pH 7.5, 1% Triton-X100, 150 mM NaCl; ~300 µg lysate protein immunoprecipitated with 5 µg antibody for 2 h at 4°C, protein A/G magnetic beads; Western blot; no benzonase treatment

binding: binds
B1: Foxp3 (protein, UniProt Q99JB6 1-417)
chain: MPNPRPAKPMAPSLALGPSPGVLPSWKTAPKGSELLGTRGSGGPFQGRDLRSGAHTSSSLNPLPPSQLQLPTVPLVMVAPSGARLGPSPHLQALLQDRPHFMHQLSTVDAHAQTPVLQVRPLDNPAMISLPPPSAATGVFSLKARPGLPPGINVASLEWVSREPALLCTFPRSGTPRKDSNLLAAPQGSYPLLANGVCKWPGCEKVFEEPEEFLKHCQADHLLDEKGKAQCLLQREVVQSLEQQLELEKEKLGAMQAHLAGKMALAKAPSVASMDKSSCCIVATSTQGSVLPAWSAPREAPDGGLFAVRRHLWGSHGNSSFPEFFHNMDYFKYHNMRPPFTYATLIRWAILEAPERQRTLNEIYHWFTRMFAYFRNHPATWKNAIRHNLSLHKCFVRVESEKGAVWTVDEFEFRKKR

— PMC11327135
